According to the supplement of paper PMC6411743:
± gives the standard deviation of the averaged measurements. Only a part is listed here, and it is no random draw.

The chains behind the UniProt entries cited, without tags or fusion partners. Where a name states a change or a piece, a line headed by the entry shows the natural chain unless it says otherwise.
UniProt Q15025: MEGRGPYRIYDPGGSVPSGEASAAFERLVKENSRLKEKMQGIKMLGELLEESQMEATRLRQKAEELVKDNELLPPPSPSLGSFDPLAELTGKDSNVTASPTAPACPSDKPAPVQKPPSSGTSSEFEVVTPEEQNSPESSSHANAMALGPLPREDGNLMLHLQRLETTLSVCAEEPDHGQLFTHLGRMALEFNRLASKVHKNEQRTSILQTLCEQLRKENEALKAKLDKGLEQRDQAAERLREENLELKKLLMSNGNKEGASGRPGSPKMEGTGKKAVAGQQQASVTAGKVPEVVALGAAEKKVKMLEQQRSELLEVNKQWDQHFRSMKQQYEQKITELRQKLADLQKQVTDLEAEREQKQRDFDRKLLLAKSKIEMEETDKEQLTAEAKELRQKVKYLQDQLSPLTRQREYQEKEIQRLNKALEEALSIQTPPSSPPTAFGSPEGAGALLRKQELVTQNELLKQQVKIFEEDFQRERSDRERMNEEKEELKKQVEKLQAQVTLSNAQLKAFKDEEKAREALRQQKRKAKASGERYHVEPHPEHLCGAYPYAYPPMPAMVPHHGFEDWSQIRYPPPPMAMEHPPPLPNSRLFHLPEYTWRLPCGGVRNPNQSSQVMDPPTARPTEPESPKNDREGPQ
UniProt Q13144, whole entry: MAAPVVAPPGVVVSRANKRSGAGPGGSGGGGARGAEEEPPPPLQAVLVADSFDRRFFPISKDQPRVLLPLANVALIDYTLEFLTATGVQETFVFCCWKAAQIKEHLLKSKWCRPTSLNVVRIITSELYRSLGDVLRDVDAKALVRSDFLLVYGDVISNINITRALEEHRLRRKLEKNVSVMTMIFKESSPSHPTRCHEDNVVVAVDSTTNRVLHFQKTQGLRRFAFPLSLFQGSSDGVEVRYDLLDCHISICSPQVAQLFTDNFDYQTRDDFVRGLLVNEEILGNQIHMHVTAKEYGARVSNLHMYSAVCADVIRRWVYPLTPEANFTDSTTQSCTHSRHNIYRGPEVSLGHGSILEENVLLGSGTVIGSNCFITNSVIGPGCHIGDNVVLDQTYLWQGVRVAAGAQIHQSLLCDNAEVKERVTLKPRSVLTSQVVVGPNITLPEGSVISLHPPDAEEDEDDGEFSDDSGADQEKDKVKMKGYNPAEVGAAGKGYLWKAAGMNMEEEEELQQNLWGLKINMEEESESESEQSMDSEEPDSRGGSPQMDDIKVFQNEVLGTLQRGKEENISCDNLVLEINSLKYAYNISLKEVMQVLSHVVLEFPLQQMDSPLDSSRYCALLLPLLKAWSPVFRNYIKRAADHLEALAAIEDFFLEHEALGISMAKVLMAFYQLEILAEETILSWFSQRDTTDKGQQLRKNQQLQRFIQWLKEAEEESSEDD
UniProt Q14019: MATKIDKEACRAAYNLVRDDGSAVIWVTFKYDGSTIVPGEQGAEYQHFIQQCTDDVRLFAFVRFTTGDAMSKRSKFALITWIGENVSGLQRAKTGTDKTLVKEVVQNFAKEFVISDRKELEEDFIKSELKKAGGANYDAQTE
UniProt Q10713: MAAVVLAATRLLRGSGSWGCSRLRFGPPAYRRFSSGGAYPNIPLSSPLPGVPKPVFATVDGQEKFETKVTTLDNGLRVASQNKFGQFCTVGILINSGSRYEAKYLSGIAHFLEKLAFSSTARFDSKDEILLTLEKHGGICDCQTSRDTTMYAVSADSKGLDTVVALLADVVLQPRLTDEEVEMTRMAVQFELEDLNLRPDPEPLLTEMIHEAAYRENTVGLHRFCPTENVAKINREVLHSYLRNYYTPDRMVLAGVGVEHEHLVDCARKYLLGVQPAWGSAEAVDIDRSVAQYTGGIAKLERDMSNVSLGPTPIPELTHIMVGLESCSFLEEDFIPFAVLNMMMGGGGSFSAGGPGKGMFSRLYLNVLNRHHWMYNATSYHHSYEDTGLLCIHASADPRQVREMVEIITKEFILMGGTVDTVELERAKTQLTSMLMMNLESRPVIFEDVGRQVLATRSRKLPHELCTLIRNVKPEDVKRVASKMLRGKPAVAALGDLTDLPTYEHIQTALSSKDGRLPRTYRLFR
UniProt Q14CB8: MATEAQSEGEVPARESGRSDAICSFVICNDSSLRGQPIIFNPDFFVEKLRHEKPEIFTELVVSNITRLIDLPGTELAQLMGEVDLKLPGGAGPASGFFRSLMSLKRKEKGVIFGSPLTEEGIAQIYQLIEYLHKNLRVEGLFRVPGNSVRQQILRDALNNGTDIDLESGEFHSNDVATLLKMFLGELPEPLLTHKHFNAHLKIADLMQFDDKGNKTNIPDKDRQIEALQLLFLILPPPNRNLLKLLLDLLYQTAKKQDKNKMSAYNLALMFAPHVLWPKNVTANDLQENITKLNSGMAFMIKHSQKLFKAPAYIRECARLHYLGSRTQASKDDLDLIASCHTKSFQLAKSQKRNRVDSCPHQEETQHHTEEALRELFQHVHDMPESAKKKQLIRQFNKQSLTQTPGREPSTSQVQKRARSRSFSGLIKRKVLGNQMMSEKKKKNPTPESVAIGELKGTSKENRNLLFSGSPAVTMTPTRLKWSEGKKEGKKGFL
UniProt Q14152, whole entry: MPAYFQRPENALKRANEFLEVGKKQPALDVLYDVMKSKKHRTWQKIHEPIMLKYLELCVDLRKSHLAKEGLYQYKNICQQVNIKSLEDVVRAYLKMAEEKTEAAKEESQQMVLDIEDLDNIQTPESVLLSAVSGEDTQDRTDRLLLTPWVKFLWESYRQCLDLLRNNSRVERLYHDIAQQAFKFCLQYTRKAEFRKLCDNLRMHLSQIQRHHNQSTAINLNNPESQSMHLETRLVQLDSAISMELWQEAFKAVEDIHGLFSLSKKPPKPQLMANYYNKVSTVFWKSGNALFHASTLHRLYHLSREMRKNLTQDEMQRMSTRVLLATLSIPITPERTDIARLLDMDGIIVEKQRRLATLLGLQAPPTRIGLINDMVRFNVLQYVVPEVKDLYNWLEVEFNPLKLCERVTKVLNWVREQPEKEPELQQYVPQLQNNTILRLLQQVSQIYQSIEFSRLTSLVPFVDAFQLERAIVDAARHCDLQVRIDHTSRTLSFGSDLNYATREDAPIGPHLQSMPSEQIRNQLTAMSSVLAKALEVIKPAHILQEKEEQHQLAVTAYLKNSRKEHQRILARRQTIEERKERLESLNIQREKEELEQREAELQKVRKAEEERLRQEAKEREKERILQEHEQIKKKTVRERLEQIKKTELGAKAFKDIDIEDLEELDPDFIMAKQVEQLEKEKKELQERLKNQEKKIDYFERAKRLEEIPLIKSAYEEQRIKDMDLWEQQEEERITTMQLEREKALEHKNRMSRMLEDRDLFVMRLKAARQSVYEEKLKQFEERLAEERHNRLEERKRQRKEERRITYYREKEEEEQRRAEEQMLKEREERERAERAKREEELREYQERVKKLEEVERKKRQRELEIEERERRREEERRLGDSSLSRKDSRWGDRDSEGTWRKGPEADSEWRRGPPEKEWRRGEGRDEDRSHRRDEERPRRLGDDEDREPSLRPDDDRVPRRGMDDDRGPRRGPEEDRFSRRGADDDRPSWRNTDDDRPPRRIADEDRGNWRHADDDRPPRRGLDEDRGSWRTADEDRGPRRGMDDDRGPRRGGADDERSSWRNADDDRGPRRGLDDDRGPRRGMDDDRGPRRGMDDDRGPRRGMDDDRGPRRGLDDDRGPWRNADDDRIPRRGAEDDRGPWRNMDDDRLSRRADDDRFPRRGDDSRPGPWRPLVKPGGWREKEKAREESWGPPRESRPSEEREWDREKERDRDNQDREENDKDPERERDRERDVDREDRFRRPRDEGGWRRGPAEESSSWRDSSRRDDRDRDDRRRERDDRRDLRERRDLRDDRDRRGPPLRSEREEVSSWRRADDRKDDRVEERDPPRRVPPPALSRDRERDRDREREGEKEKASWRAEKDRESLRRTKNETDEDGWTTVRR
UniProt Q13596, whole entry: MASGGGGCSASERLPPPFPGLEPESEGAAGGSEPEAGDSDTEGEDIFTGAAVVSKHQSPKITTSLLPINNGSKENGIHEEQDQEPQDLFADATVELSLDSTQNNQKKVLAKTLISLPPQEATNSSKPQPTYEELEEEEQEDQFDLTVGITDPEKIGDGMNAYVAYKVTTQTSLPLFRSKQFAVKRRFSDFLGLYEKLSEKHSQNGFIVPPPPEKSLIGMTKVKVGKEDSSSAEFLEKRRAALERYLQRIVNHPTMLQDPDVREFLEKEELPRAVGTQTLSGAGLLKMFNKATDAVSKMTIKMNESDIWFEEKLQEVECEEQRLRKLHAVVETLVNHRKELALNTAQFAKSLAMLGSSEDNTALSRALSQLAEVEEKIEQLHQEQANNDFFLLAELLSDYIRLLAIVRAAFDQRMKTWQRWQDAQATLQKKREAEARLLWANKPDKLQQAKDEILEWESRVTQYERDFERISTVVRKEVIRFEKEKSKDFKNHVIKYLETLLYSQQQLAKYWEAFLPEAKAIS
UniProt Q13362, whole entry, looked up: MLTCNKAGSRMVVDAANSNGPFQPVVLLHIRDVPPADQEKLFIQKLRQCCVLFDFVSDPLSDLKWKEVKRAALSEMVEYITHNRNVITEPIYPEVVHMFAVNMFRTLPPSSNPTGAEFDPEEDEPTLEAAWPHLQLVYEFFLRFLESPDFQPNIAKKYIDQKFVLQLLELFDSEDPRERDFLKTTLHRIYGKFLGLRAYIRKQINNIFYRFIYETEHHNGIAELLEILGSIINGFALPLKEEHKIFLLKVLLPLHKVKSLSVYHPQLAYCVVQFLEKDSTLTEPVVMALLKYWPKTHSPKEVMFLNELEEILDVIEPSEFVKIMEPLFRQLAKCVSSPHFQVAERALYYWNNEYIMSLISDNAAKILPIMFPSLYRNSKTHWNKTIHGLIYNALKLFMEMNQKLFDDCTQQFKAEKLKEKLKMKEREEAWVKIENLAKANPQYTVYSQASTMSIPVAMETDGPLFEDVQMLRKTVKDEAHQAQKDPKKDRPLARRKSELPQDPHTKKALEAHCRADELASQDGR
UniProt Q14683: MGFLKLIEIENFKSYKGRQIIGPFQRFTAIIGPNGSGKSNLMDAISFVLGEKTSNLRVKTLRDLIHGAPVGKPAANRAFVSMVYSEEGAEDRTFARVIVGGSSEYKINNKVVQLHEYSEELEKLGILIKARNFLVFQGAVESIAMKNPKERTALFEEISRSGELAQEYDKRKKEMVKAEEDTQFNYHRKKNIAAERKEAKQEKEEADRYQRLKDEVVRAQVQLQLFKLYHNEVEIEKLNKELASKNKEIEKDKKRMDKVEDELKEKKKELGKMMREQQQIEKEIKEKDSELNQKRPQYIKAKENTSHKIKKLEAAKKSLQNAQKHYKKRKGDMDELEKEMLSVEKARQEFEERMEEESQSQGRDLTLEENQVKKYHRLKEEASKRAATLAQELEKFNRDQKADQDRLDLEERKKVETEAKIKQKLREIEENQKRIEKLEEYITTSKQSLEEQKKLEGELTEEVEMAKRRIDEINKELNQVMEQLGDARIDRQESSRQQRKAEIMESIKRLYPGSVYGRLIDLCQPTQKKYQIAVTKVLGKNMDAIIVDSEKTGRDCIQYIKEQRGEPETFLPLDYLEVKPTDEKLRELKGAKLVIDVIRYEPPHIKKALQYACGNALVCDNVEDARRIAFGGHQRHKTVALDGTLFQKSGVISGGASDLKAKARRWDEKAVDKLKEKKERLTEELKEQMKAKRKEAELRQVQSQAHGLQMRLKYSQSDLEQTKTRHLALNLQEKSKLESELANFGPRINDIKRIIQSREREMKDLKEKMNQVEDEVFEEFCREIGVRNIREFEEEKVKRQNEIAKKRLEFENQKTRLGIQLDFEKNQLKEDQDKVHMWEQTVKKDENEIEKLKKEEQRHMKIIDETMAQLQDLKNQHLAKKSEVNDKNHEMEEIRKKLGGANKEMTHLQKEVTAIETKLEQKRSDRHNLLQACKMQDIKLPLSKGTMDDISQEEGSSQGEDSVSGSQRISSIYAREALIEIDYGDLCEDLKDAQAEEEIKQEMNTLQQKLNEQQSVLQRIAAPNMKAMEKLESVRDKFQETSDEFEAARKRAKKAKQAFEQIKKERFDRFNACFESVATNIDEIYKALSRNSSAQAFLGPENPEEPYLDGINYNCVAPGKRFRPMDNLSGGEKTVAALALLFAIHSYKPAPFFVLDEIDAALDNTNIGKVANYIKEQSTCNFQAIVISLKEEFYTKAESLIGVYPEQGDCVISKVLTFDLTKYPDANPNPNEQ
UniProt Q13571: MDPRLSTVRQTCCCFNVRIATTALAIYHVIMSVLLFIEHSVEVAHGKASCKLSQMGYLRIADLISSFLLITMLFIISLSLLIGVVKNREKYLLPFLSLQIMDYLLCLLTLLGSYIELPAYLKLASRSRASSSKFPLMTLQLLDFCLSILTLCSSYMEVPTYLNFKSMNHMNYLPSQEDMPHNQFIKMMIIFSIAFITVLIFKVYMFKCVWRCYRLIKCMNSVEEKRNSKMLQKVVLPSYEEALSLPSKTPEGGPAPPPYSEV
UniProt Q13542: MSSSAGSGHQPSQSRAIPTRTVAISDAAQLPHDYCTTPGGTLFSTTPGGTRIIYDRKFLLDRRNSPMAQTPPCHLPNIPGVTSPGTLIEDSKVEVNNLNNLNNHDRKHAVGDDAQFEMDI

compound: Nc1ncnc2c1ncn2[C@@H]1O[C@H](COP(=O)(O)OP(=O)(O)NP(=O)(O)O)[C@@H](O)[C@H]1O [adenylyl imidodiphosphate]; test: NP40-soluble protein abundance relative to vehicle (solubility fold change) (ratio); higher = more soluble protein in presence of AMP-PNP; conditions: concentration: 1mM
Method in brief: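 Crude Jurkat lysate, prepared by Dounce homogenisation, was exposed to eight concentrations from 0.1 to 10 mM for 10 min at room temperature and then 3 min at 37 °C. Solubilisation used 0.8% NP40 with benzonase for 60 min at 4 °C, followed by ultracentrifugation and TMT labelling of the supernatant for LC-MS/MS. After vsn normalisation of intensities, each value is the fold change against the detergent-processed vehicle within each replicate, across three independent experiments.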

Target	NP40-soluble protein abundance
UniProt Q15025 and related entries	0.973 ± 0.041
UniProt Q12769 and related entries	1 ± 0.024
EIF2B5 (UniProt Q13144)	0.963 ± 0.048
UniProt Q14790 and related entries	0.977 ± 0.051
COTL1 (UniProt Q14019)	0.985 ± 0.024
UniProt Q12933 and related entries	0.987 ± 0.021
URB2 (UniProt Q14146)	0.971 ± 0.018
AHNAK (UniProt Q09666)	1.03 ± 0.024
UniProt Q12974 and related entries	1.04 ± 0.032
PMPCA (UniProt Q10713)	0.985 ± 0.018
UniProt Q14980 and related entries	1.04 ± 0.022
UniProt Q14CB8 and related entries	1 ± 0.039
RAB33A (UniProt Q14088)	1.02 ± 0.021
EIF3A (UniProt Q14152)	1.05 ± 0.029
SNX1 (UniProt Q13596)	1 ± 0.021
IQGAP2 (UniProt Q13576)	0.956 ± 0.027
EP300 (UniProt Q09472)	1.01 ± 0.036
UniProt Q13362-2|Q13362-3|Q13362-4	0.982 ± 0.017
IK (UniProt Q13123)	1.06 ± 0.024
UniProt Q15006	0.984 ± 0.018
SMC1A (UniProt Q14683)	1.02 ± 0.036
UniProt Q13131 and related entries	1.03 ± 0.032
UniProt Q13191 and related entries	1.008 ± 0.0089
LAPTM5 (UniProt Q13571)	1 ± 0.016
UniProt Q13472 and related entries	0.995 ± 0.018
EIF4EBP2 (UniProt Q13542)	1.04 ± 0.052

Looked up above:
Value for SMC1A (UniProt Q14683) under NP40-soluble protein abundance: 1.02 ± 0.036
Value for UniProt Q13362-2|Q13362-3|Q13362-4 under NP40-soluble protein abundance: 0.982 ± 0.017
